Experimental data: the supplement of paper PMC3334620
Whole data set: some 33,000 sequences, median “E-score (-0.5 to 0.5)” near -0.0059, cut for the highest 2% near 0.26. Some of the results follow.

biological target: T1, Cin5 (UniProt P40917); assay: PBM E-score (8-mer binding enrichment) (E-score (-0.5 to 0.5)); higher = stronger / more preferred TF binding; conditions: protein concentration: 100 nM; construct: GST-full length
T1 sequence: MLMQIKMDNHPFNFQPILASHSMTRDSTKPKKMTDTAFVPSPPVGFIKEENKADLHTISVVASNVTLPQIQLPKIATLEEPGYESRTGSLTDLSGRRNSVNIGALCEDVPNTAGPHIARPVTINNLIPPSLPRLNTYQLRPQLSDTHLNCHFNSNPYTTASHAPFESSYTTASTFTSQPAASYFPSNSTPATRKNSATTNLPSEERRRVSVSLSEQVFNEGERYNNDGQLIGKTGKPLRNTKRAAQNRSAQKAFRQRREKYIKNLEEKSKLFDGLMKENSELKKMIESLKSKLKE
Summary of the method: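 Using PURExpress in vitro transcription/translation, GST-tagged yeast transcription factors were made in full-length or DNA-binding-domain form. These were applied at about 100-200 nM to double-stranded universal all-10-mer Agilent arrays, and bound protein was detected with fluorescent anti-GST. Scans were normalised with masliner before the Universal PBM Analysis Suite assigned E-scores to ungapped eight-base words pooled with their reverse complements.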

Compared with CTGGTACC, TTCGCCAA is higher in “PBM E-score” value: -0.272 for the first, -0.193 for the second.

Going from CATCGGCG to ACAGTGAC, the “PBM E-score” value rises from -0.0538 to -0.0331.

First: CGTCAATA
Second: ATGCGGAC
The “PBM E-score” value of the first is higher: -0.0685 for the first, -0.0741 for the second.

First: GCTTCTCC
Second: CCGCCACC
The “PBM E-score” value of the first is higher: -0.142 for the first, -0.15 for the second.

Compared with ACTCTGCG, ATAGCGCG is higher in “PBM E-score” value: -0.0404 for the first, 0.108 for the second.

First: ACACTCTG
Second: TAGCCCAA
The “PBM E-score” value of the first is lower: -0.0198 for the first, -0.0193 for the second.

Going from CAACAAAC to GTGCACAC, the “PBM E-score” value falls from 0.106 to -0.197.

First: CTAATCCA
Second: CAGAACCG
The “PBM E-score” value of the first is higher: 0.219 for the first, 0.0518 for the second.

Compared with GAACTATC, AACGGGTC is lower in “PBM E-score” value: 0.0863 for the first, -0.2 for the second.

Going from AGCAAGAT to GTTTTGTA, the “PBM E-score” value rises from 0.107 to 0.173.

First: GACGCGAC
Second: CTCCCTTC
The “PBM E-score” value of the first is higher: -0.0493 for the first, -0.312 for the second.

Compared with CTCTTGAC, TACTTCTA is higher in “PBM E-score” value: -0.177 for the first, 0.0943 for the second.

First: AATACAGA
Second: ACGAGAGG
The “PBM E-score” value of the first is higher: 0.106 for the first, -0.0722 for the second.

Going from CGTACATA to AAGCCGAG, the “PBM E-score” value falls from 0.191 to 0.0634.

Compared with ACCCGACT, GCGAATCC is lower in “PBM E-score” value: 0.0111 for the first, 0.0051 for the second.

Compared with AGCGGTCA, TCTATTCA is higher in “PBM E-score” value: 0.00136 for the first, 0.173 for the second.

Compared with CATTCGGC, GGCTGACA is higher in “PBM E-score” value: 0.00096 for the first, 0.239 for the second.

Compared with AAAGGTGG, ACGGCCTA is lower in “PBM E-score” value: 0.0351 for the first, -0.0309 for the second.

Going from ACCTGAGC to ACTCAGAT, the “PBM E-score” value rises from -0.0629 to 0.099.

First: ACGATTAA
Second: AGATGGCA
The “PBM E-score” value of the first is lower: 0.0274 for the first, 0.0435 for the second.

Going from TCCGCGCA to AACTATCA, the “PBM E-score” value rises from 0.00502 to 0.184.

First: GTATTACA
Second: CTGCGCGC
The “PBM E-score” value of the first is higher: 0.34 for the first, 0.163 for the second.

First: CGGTGCCA
Second: AAAGCCCG
The “PBM E-score” value of the first is lower: -0.331 for the first, -0.123 for the second.

Going from GTTCAGAA to AACATTCG, the “PBM E-score” value rises from -0.0685 to -0.0491.

Going from AATTACCG to AACAAGAA, the “PBM E-score” value rises from 0.0795 to 0.103.

First: AGTGGATG
Second: ACAGACCC
The “PBM E-score” value of the first is higher: 0.0625 for the first, -0.148 for the second.

First: TACCTGAA
Second: CAACAGCA
The “PBM E-score” value of the first is higher: 0.0966 for the first, -0.0833 for the second.

Going from CAAACGAG to ATATTGAA, the “PBM E-score” value rises from 0.00716 to 0.0267.

First: AATCATAG
Second: GACCGGAC
The “PBM E-score” value of the first is higher: 0.291 for the first, -0.102 for the second.

Going from CTCTAATC to CACGAGTC, the “PBM E-score” value rises from -0.145 to -0.106.

First: ACCTTCGC
Second: CAGCGGAG
The “PBM E-score” value of the first is lower: -0.135 for the first, 0.015 for the second.

Going from ATTAAGGA to ATTCTTTG, the “PBM E-score” value rises from 0.0984 to 0.108.

First: GCTGATGA
Second: GCCATTCA
The “PBM E-score” value of the first is higher: 0.142 for the first, 0.0283 for the second.

First: AGCTGCGA
Second: CTAGTGAA
The “PBM E-score” value of the first is lower: -0.0401 for the first, 0.00047 for the second.

First: ACCCAAAC
Second: CCAGGGAC
The “PBM E-score” value of the first is higher: 0.214 for the first, -0.267 for the second.

Compared with ATGTCTTC, ATCCCCAC is higher in “PBM E-score” value: -0.192 for the first, 0.101 for the second.

First: CAGGTCCA
Second: CTTGCGCC
The “PBM E-score” value of the first is higher: -0.0937 for the first, -0.147 for the second.

Compared with CACCACTG, ATCGACGA is higher in “PBM E-score” value: -0.118 for the first, -0.0409 for the second.

First: CCGACTAC
Second: ACGAAGCG
The “PBM E-score” value of the first is lower: -0.119 for the first, -0.0772 for the second.

Going from CAAAGTGG to AGTACGTA, the “PBM E-score” value rises from -0.0385 to 0.229.

First: GGTAGACC
Second: GACCGACC
The “PBM E-score” value of the first is lower: -0.276 for the first, -0.0743 for the second.

Going from GTGACCGA to AAGAGGCC, the “PBM E-score” value falls from -0.0493 to -0.123.

Compared with AGCGCCCT, GTTCGTGA is lower in “PBM E-score” value: -0.05 for the first, -0.243 for the second.

Going from ATAGCACC to CGCCATAG, the “PBM E-score” value falls from 0.00185 to -0.0304.

Compared with ATGTAAAG, AGGTCTTA is lower in “PBM E-score” value: 0.0925 for the first, -0.071 for the second.

Compared with CAGAGTCG, CAGCATAG is lower in “PBM E-score” value: 0.0722 for the first, 0.0061 for the second.

Going from ACGCAATG to CGGCCATA, the “PBM E-score” value falls from -0.0511 to -0.161.

Going from CACGGTGA to CTCGGCGC, the “PBM E-score” value rises from -0.0758 to 0.0133.

Compared with GAGACCTC, ACACACGC is higher in “PBM E-score” value: -0.108 for the first, 0.0303 for the second.

First: AACCGTGA
Second: ACCTCGCA
The “PBM E-score” value of the first is lower: -0.0786 for the first, -0.06 for the second.

First: AACAGCAA
Second: CGCCAAGC
The “PBM E-score” value of the first is higher: 0.144 for the first, -0.235 for the second.

First: AGTACGCA
Second: AAGAGACG
The “PBM E-score” value of the first is lower: -0.185 for the first, 0.0168 for the second.

First: CAGACTAA
Second: ATGTACCG
The “PBM E-score” value of the first is lower: -0.035 for the first, 0.00371 for the second.

Compared with AAGGAGTG, ACCAATAT is higher in “PBM E-score” value: 0.0324 for the first, 0.323 for the second.

Going from CGGCTCTA to CTCAGAAA, the “PBM E-score” value rises from -0.0308 to 0.0121.

Compared with CTTACCCC, ACTTGTTG is higher in “PBM E-score” value: -0.193 for the first, -0.163 for the second.

First: ACTTCTGC
Second: CATGACGC
The “PBM E-score” value of the first is higher: 0.134 for the first, 0.0601 for the second.

First: ATTATGGG
Second: CAAGACCA
The “PBM E-score” value of the first is higher: 0.0617 for the first, -0.0752 for the second.

Compared with AAGGAGGC, ATAGAATA is higher in “PBM E-score” value: -0.233 for the first, 0.277 for the second.

Compared with GTCTGCTA, CCCCCTCG is lower in “PBM E-score” value: -0.074 for the first, -0.401 for the second.

Compared with AGAGATAC, CCAAGAGG is lower in “PBM E-score” value: 0.0582 for the first, -0.112 for the second.

Compared with AGAGCAAA, AGGGTGTC is lower in “PBM E-score” value: -0.055 for the first, -0.136 for the second.

First: CAGGAGAG
Second: AAGATATA
The “PBM E-score” value of the first is lower: -0.226 for the first, 0.152 for the second.

First: CCTGTGTA
Second: CTGCAACA
The “PBM E-score” value of the first is lower: 0.0446 for the first, 0.0981 for the second.

Going from ATCTATCA to AATACTAT, the “PBM E-score” value rises from 0.0882 to 0.214.

Going from ACCCGTAA to CGCGGGGA, the “PBM E-score” value rises from -0.0289 to 0.216.

Going from CCCTCGAC to GTACGTAC, the “PBM E-score” value rises from -0.114 to -0.00455.

Compared with GTCATTCA, GCAAAACA is higher in “PBM E-score” value: 0.0611 for the first, 0.138 for the second.

Compared with ATGACAAG, GAGCCTTA is lower in “PBM E-score” value: 0.108 for the first, -0.14 for the second.

First: GACTTGGC
Second: CGTCGGCC
The “PBM E-score” value of the first is lower: -0.178 for the first, -0.0669 for the second.

Compared with CGGGCTTA, ACCTCATC is higher in “PBM E-score” value: 0.0462 for the first, 0.0947 for the second.

Going from CGGACCCG to GCTGCACC, the “PBM E-score” value rises from -0.123 to -0.0592.

Going from CGCATTAC to AGAGCTTA, the “PBM E-score” value falls from 0.143 to 0.0142.

Compared with ATCTCATA, CTACCATC is lower in “PBM E-score” value: 0.0166 for the first, -0.0801 for the second.

First: GAGGCCGC
Second: CCCGGAAC
The “PBM E-score” value of the first is lower: -0.314 for the first, 0.0654 for the second.

Compared with AACTGTAA, CGTTCGGC is lower in “PBM E-score” value: 0.205 for the first, 0.0473 for the second.

Going from CGTAACTA to AAAAGAGC, the “PBM E-score” value falls from 0.097 to -0.0975.

Going from AGTATATC to ATGTAGGA, the “PBM E-score” value falls from 0.126 to -0.152.

Going from CGGTTTTC to ATCGACAT, the “PBM E-score” value rises from 0.0743 to 0.0947.

First: GAAGGCGA
Second: ATCATACC
The “PBM E-score” value of the first is lower: -0.0397 for the first, 0.168 for the second.

Compared with GGCTACCC, GGATCCGA is higher in “PBM E-score” value: -0.268 for the first, -0.105 for the second.

Compared with GACATGTC, ACCCGGAC is lower in “PBM E-score” value: -0.0531 for the first, -0.132 for the second.

Compared with AAAAAACA, ATTATCTA is higher in “PBM E-score” value: 0.284 for the first, 0.315 for the second.

Compared with GTTATGCA, AAGAAACG is lower in “PBM E-score” value: 0.0592 for the first, -0.0122 for the second.

First: TCAGTCGA
Second: CCTGAGAA
The “PBM E-score” value of the first is higher: 0.129 for the first, 0.0088 for the second.

Going from ATATACTA to CAGAGCGG, the “PBM E-score” value falls from 0.318 to -0.0525.
